Structures are written as SMILES. Some of the results follow. These are further read-outs of the screen, such as a control signal, another cell line or another target. No call is given for them. Compounds called inactive in the main read-out are mostly missing here. Words in brackets tell the shape of the fitted curve; partial curves, single points and poor fits give uncertain potencies.

This test is described as follows: qHTS Assay for Lipid Storage Modulators in Drosophila S3 Cells.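 For cell number change: cells counted by Cell Tracker Red CMTPX staining in the red channel.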 The settings on record: BODIPY lipid droplet fluorescence, 18-24 h; for cell number change: measured here: cell count max response, cells fed with added oleic acid. A digest of the protocol: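 Drosophila S3 cells got compounds at several concentrations plus oleic acid (400 uM solution). Laser-scanning cytometry with 488 nm excitation read lipid droplets at 500-530 nm and cells at 575-640 nm. Percent activity was relative to 20 uM Triacsin C.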
(In general: In qHTS, concentration-response curves come from the screen itself.)

The mark [1] stands for this setting: measured here: lipid fluorescence (Fed channel) AC50, cells fed with added oleic acid.
[2] abbreviates: measured here: cell number channel AC50, cells fed with added oleic acid.

As a reminder, the AC50 is the midpoint of the concentration-response curve, whichever way the signal moves. For `Cc1ccc(-c2cc(C(=O)Nc3ccc(S(=O)(=O)Nc4cc(C)on4)cc3)c3ccccc3n2)c(C)c1`, the cell number change is -25.7%. Also, the AC50 under setting [1] is 29.1 µM [falling, single point]. With `CCC(C)NC(=O)/C=C/c1ccc(S(=O)(=O)NCc2ccco2)cc1` (stereo not given), the cell number change stood at 5.91%. As for `CN(C1CCS(=O)(=O)C1)S(=O)(=O)c1ccccc1` (stereo not given), the cell number change is -45.7%. Besides, under setting [2], the AC50 was 29.1 µM [falling, single point]. For the same molecule, under setting [1], the AC50 was 4.11 µM [rising, single point]. `CCOCCOc1nc(C)cc(C)c1S(=O)(=O)c1ccccc1C`: under setting [1], the AC50 was 20.6 µM [rising, single point].

Turning to `Cn1c(N)c(C(=O)COC(=O)COc2ccc(Br)cc2)c(=O)n(C)c1=O`, the cell number change is -40.8%. In addition, the AC50 under setting [2] was 32.6 µM [falling, single point]. Under setting [1], the AC50 was 20.6 µM [rising, partial curve, poor fit].

`CCOC(=O)C1CCN(C(=O)c2cc3c(s2)-c2ccccc2OC3)CC1`: the cell number change was -4.9%. For the same molecule, under setting [1], the AC50 was 1.3 µM [rising, full curve, poor fit]. As for `O=C(CC12CC3CC(CC(C3)C1)C2)N1CCOCC1`, the cell number change is -36.8%. Under setting [2], the AC50 was 1.3 µM [falling, full curve]. Also, the AC50 under setting [1] is 3.66 µM [falling, full curve]. As to `CC(C)Oc1ccc(S(=O)(=O)N2CCOCC2)cc1NC(=O)C1=NN(c2ccccc2)C(=O)CC1`, the half-maximal activity concentration (AC50) under setting [2] is 6.51 µM [rising, single point] and the AC50 under setting [1] was 6.51 µM [falling, single point]. Take `Cc1ccccc1C(=O)O/N=C(\N)c1ccc([N+](=O)[O-])cc1`: the cell number change worked out at 5.47%. Also, under setting [1], the AC50 is 32.6 µM [rising, single point]. As for `C/C(CCN1CCCCc2nc(C)c(C)cc21)=N\O[C@@H](C)c1cn([C@H](CO)Cc2ccccc2)nn1`, the AC50 under setting [1] is 0.058 µM [falling, full curve, poor fit]. With `Cc1ccc(NCC(=O)Nc2c(C)n(C)n(-c3ccccc3)c2=O)cc1S(=O)(=O)N(C)C`, the cell number change was -7.58%. Regarding `Cc1ccc(NC(=O)CSc2nc(=O)n3cc(C)ccc3n2)c(C)c1`, the cell number change came to 35.3%. Moreover, under setting [2], the AC50 is 0.164 µM [rising, full curve].

With `COc1ccc2c(CC(=O)N3CCN(S(=O)(=O)c4ccc(F)cc4)CC3)coc2c1`, the cell number change is -2.33%. Under setting [1], the AC50 was 29.1 µM [rising, single point]. As to `CCOc1ccc(C2NC(=O)NC(C)=C2[N+](=O)[O-])cc1OC` (stereo not given), the cell number change is 0.815%. Further, under setting [1], the AC50 was 3.26 µM [falling, single point]. On to `O=C(NC(Nc1nc2ccccc2s1)(C(F)(F)F)C(F)(F)F)c1ccccc1`, for which the cell number change worked out at 20.2%. Under setting [1], the AC50 is 6.51 µM [rising, single point]. Regarding `CCOC(=O)C1=C(C)NC(=S)NC1C` (stereo not given), the cell number change was -74.3%. The AC50 under setting [2] was 32.6 µM [falling, partial curve, poor fit]. For the molecule `CCc1cc2c(=O)c(-c3nc(C)cs3)coc2cc1O`, the cell number change turned out to be 17.3%. In addition, under setting [1], the AC50 was 29.1 µM [rising, single point]. On to `CC(NC(=O)CN1CCN(Cc2cccc(F)c2)CC1)c1ccccc1` (stereo not given), for which the cell number change is -34.8%. Moreover, the AC50 under setting [2] was 6.51 µM [falling, full curve, poor fit].

Take `O=C(c1cc(=O)c2ccccc2o1)N1CCN(c2ccccc2)CC1`: the AC50 under setting [1] is 0.731 µM [rising, partial curve, poor fit].

Regarding `S=C(Nc1ccc(Br)cc1)NC1CCCC1`, the AC50 under setting [1] was 29.1 µM [falling, single point]. `CN1/C(=C/C2CC(=O)NC2=O)C(C)(C)c2ccccc21` (stereo not given): the cell number change came out at 47.4%. For the same molecule, the AC50 under setting [2] is 29.1 µM [rising, single point]. As to `CC(=O)NCCC(=O)Nc1nc2c(ccc3ccccc32)s1`, the cell number change came out at 42.3%. Moreover, under setting [2], the half-maximal activity concentration (AC50) was 0.13 µM [rising, full curve, poor fit]. The AC50 under setting [1] is 29.1 µM [falling, single point]. Regarding `CCOc1ccc(/C=C2/Sc3ccc(C(=O)NCC4CCCO4)cc3N(C)C2=O)cc1OC` (stereo not given), the cell number change is -15.7%. Under setting [1], the half-maximal activity concentration (AC50) is 3.66 µM [falling, full curve]. In the case of `Cc1ccc(C(=O)c2ccccc2C(=O)OCC(=O)Nc2cccc([N+](=O)[O-])c2)cc1`, the cell number change is -11.4%. For the same molecule, under setting [1], the AC50 is 5.8 µM [rising, partial curve]. For the molecule `COc1ccc(C2C(C#N)=C(N)Nc3onc(C(C)(C)C)c32)c(OC)c1` (stereo not given), the cell number change is -1.22%. Further, the half-maximal activity concentration (AC50) under setting [1] is 0.731 µM [falling, full curve, poor fit]. As for `O=C(O)c1ccc(CSc2nnc(-c3ccccc3Br)o2)cc1`, the cell number change was determined as 36.5%. In the case of `C/C(=N\OC(=O)c1ccc(OC(C)C)cc1)c1ccc(C)c(C)c1`, the cell number change amounted to 80.5%. Moreover, the AC50 under setting [2] was 18.4 µM [rising, single point]. Also, under setting [1], the half-maximal activity concentration (AC50) was 0.231 µM [falling, full curve, poor fit].

Regarding `Cc1sc(NC(=S)NC(=O)c2ccco2)c(C#N)c1C`, the cell number change was -10.7%. Besides, the concentration at half-maximal activity (AC50) under setting [2] is 0.116 µM [falling, full curve, poor fit]. Take `Cc1cc(C(=O)Nc2nnc(C(F)(F)F)s2)no1`: under setting [2], the AC50 was 5.17 µM [falling, single point]. On to `CCOC(=O)c1nn(-c2ccc3c(c2)OCO3)cc1O`, for which the cell number change was -9.29%. Further, under setting [1], the AC50 was 25.9 µM [rising, single point]. For `O=C(CCc1n[nH]c(=O)[nH]c1=O)N/N=C/c1ccc(Br)o1`, the cell number change was -21.6%. Moreover, the AC50 under setting [1] is 16.4 µM [falling, single point]. Take `O=C(Nc1ccc(F)cc1)C1CCN(c2ncnc3c2nc2n3CCCCC2)CC1`: the cell number change worked out at 15.6%.

`COc1ccc(Cl)cc1NC(=O)CSc1nnc(C)c(=O)n1N`: the cell number change amounted to 7.92%. The AC50 under setting [1] is 18.4 µM [rising, single point]. In the case of `CCCCOc1ccccc1C(=O)NCCCC(=O)O`, the cell number change was 34.9%. Also, the AC50 under setting [2] is 14.6 µM [rising, single point]. Also, the AC50 under setting [1] was 20.6 µM [rising, single point].

As for `COC(=O)CCS(=O)(=O)c1ccc(Cl)cc1`, the cell number change was determined as 35%. The AC50 under setting [2] was 29.1 µM [rising, single point]. As for `C[C@@H](C(=O)Nc1ccc2ccccc2c1)[C@H]1C[C@]1(C)[C@H](NS(=O)(=O)c1ccccc1)c1ccccc1`, the cell number change is -2.04%. Turning to `COC(=O)/C(=C1/Oc2ccc(C(C)(C)C)cc2S1)C(F)(F)F`, the cell number change is -0.0822%. Moreover, under setting [1], the AC50 was 2.91 µM [falling, partial curve, poor fit]. `CN(C)C(=O)c1nc(C#N)c(N(C)C)o1`: the AC50 reads like this: under setting [2], 0.651 µM [rising, single point]; under setting [1], 0.58 µM [rising, single point].

Consider `CCOc1ccccc1C(=O)Nc1cnn(Cc2ccc(F)cc2)c1`, for which the AC50 under setting [2] was 2.06 µM [rising, partial curve].

Take `CC1=NN(c2ccccc2)C(=O)/C1=C/C=C/c1ccc(N(C)C)cc1`: the cell number change is -58.2%. In addition, under setting [2], the AC50 is 11.6 µM [falling, partial curve, poor fit]. Besides, the AC50 under setting [1] is 14.6 µM [falling, partial curve]. As to `CC(=O)OCC1OC(OC(C)=O)C(NC(=O)c2cccnc2)C(OC(C)=O)C1OC(C)=O` (stereo not given), under setting [2], the concentration at half-maximal activity (AC50) was 0.461 µM [rising, single point]. Consider `CC1=Nc2ccccc2/C1=C\c1nc(-c2ccccc2)oc1O`, for which the cell number change was found to be 20.4%. Besides, the AC50 under setting [2] was 1.64 µM [rising, full curve, poor fit]. In addition, the AC50 under setting [1] was 3.26 µM [rising, partial curve]. For the molecule `CCOC(=O)c1snc2c(=O)[nH]cnc12`, the cell number change turned out to be 5.8%. For the same molecule, the AC50 under setting [2] is 5.17 µM [falling, partial curve, poor fit]. The AC50 under setting [1] is 1.64 µM [falling, partial curve]. `COc1ccccc1N(CN1CCCC1=O)C(=O)c1c(F)cccc1Cl`: the cell number change was -67.9%. Also, the AC50 under setting [2] was 29.1 µM [falling, single point]. Consider `CC1CCCN(S(=O)(=O)Cc2ccc(Cl)cc2)C1` (stereo not given), for which the concentration at half-maximal activity (AC50) is 0.146 µM [falling, full curve] under setting [2] and 0.731 µM [falling, full curve] under setting [1]. As for `CCCC(c1nnnn1CS(=O)(=O)c1ccc(C)cc1)N1CCN(c2ccc(F)cc2)CC1` (stereo not given), the AC50 under setting [2] is 4.61 µM [rising, single point]. Take `CCN(CC)c1ccc(NC(=O)c2c(OC)cccc2OC)c(C)c1`: the cell number change was -19.1%. Further, the AC50 under setting [1] was 4.61 µM [rising, partial curve]. As to `O=C(NCC(=O)N1CCN(C(c2ccccc2)c2ccccc2)CC1)c1ccc(Br)o1`, the cell number change was -22.3%. Also, the AC50 under setting [1] is 0.58 µM [rising, single point]. In the case of `CC(C)(C)c1csc(SCC(=O)Nc2ccc(Cl)cn2)n1`, the cell number change was -55.5%. For the same molecule, the AC50 under setting [2] is 18.4 µM [falling, partial curve]. Besides, the AC50 under setting [1] was 14.6 µM [falling, partial curve, poor fit]. With `Cc1cc(S(=O)(=O)NCC(c2ccc(F)cc2)N2CCN(C)CC2)ccc1F` (stereo not given), the cell number change worked out at 1.35%. Moreover, the concentration at half-maximal activity (AC50) under setting [1] was 0.651 µM [falling, single point]. For `Cc1ccnc(SCCn2c(N3CC(C)CC(C)C3)nc3c2c(=O)n(C)c(=O)n3C)n1` (stereo not given), the cell number change is -17.2%. Further, under setting [2], the AC50 was 0.146 µM [rising, full curve, poor fit]. Turning to `COc1cccc(-c2cccc(NC(=O)C3CCN(Cc4cccc(C)n4)CC3)c2)c1`, the cell number change amounted to 24.9%. In addition, the AC50 under setting [1] was 29.1 µM [rising, single point]. Consider `Cc1nc2c(-c3ccc(F)cc3)c(C)nn2c(C)c1CCC(=O)N1CCN(c2ccccn2)CC1`, for which the cell number change is -1.76%. Moreover, under setting [1], the AC50 is 20.6 µM [falling, single point]. For `COc1ccc(CC(=O)NNC(=O)c2cc(C)oc2C)cc1OC`, the cell number change is -6.81%. Besides, the half-maximal activity concentration (AC50) under setting [1] is 0.731 µM [rising, single point]. Regarding `CCOc1ccccc1CN1CCN(Cc2ccc3cccc(OC)c3n2)CC1CCO` (stereo not given), the AC50 under setting [1] was 0.731 µM [rising, partial curve, poor fit]. `CCC1=Nc2cc(C(=O)NCCN3CCOCC3)ccc2Sc2ccc(C)cc21`: the cell number change is -16.3%. For `Oc1c(Cl)cc(Cl)cc1C1Nc2ccccc2-n2cccc21` (stereo not given), the cell number change was -34.8%. For the same molecule, under setting [2], the AC50 was 32.6 µM [falling, single point]. In addition, under setting [1], the AC50 is 6.51 µM [falling, full curve, poor fit].

Values taken from PubChem BioAssay AID2685 (National Center for Advancing Translational Sciences (NCATS), 2010).
